The source of these data is paper PMC4406748.

The chains behind the UniProt entries cited, without tags or fusion partners.
UniProt O43707: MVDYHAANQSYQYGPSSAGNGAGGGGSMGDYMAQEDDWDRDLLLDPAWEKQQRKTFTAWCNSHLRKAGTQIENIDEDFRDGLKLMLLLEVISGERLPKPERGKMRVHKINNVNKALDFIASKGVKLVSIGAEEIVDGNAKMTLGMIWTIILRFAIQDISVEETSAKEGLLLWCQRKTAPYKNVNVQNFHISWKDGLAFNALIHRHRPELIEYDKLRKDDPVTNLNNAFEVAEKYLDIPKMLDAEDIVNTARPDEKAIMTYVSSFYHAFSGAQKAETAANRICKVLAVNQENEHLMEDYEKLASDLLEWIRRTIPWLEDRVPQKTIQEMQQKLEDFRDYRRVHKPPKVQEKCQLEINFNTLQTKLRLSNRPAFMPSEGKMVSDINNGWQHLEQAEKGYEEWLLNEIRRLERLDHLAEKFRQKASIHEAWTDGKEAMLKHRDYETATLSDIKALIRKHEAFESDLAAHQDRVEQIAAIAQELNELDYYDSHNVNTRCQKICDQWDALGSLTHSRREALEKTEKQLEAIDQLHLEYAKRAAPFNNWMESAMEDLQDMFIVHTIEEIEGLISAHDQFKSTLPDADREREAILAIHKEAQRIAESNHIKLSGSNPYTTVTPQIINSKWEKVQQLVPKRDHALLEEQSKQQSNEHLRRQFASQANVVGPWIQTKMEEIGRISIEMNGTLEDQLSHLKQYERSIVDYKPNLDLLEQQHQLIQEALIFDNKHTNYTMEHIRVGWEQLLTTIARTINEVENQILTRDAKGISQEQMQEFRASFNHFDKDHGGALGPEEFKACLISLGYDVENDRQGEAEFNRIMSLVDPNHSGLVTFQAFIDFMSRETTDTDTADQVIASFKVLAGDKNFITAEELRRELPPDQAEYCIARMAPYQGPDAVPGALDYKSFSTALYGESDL
UniProt P22002: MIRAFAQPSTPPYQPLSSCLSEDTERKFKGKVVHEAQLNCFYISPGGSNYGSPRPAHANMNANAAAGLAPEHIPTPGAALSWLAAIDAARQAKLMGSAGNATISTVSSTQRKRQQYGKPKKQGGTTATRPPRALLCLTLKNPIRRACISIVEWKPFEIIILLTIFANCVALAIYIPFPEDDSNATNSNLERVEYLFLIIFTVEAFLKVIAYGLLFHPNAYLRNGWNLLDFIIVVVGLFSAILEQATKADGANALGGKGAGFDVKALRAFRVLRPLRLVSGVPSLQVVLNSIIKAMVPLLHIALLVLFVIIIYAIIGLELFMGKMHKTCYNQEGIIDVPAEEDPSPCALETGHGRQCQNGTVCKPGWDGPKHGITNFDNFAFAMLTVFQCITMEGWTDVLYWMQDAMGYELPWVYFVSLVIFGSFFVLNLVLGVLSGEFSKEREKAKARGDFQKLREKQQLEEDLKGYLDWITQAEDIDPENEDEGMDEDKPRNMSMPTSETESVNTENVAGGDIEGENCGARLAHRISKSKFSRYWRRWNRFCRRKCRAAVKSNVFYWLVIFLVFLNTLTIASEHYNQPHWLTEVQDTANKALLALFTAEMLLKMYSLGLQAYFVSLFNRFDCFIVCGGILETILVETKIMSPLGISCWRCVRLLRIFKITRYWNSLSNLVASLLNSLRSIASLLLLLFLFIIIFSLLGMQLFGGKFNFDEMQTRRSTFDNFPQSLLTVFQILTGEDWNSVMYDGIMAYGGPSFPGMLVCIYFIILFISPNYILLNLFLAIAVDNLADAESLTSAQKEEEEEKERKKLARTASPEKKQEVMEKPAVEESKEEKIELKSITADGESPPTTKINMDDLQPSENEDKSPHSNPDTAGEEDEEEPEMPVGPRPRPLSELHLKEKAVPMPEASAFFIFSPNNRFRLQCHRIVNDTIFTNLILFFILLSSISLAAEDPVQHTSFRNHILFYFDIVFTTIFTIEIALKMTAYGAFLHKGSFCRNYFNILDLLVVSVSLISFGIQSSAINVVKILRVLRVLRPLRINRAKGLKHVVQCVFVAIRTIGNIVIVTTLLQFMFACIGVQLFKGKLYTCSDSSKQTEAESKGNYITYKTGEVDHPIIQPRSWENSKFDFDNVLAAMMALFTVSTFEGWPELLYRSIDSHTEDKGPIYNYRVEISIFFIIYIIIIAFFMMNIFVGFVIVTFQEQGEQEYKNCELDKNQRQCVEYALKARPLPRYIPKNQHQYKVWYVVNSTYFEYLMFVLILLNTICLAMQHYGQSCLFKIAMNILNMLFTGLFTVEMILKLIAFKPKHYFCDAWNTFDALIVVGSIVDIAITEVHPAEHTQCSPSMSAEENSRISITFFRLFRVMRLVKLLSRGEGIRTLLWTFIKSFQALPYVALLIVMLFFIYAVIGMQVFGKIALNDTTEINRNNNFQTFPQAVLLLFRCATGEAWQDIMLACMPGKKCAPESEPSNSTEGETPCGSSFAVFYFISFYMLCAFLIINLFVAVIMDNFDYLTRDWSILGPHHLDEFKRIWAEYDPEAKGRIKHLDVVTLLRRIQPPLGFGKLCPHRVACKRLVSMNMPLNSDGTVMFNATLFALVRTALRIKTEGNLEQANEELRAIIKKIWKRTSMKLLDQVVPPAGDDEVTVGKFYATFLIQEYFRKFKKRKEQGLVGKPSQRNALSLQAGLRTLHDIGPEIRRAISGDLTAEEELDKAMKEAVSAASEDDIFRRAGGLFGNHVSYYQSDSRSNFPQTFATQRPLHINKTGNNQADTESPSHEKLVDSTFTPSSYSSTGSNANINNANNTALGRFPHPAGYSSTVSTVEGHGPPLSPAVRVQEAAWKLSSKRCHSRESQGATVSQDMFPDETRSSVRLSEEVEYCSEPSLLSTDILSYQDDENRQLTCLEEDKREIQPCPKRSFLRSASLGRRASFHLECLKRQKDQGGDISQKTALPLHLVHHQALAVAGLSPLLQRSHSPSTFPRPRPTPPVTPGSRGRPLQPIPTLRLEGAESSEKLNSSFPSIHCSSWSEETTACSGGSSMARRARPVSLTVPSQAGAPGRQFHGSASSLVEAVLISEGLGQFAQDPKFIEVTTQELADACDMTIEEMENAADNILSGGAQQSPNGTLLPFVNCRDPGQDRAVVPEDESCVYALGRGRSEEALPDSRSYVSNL
UniProt Q9QXQ0: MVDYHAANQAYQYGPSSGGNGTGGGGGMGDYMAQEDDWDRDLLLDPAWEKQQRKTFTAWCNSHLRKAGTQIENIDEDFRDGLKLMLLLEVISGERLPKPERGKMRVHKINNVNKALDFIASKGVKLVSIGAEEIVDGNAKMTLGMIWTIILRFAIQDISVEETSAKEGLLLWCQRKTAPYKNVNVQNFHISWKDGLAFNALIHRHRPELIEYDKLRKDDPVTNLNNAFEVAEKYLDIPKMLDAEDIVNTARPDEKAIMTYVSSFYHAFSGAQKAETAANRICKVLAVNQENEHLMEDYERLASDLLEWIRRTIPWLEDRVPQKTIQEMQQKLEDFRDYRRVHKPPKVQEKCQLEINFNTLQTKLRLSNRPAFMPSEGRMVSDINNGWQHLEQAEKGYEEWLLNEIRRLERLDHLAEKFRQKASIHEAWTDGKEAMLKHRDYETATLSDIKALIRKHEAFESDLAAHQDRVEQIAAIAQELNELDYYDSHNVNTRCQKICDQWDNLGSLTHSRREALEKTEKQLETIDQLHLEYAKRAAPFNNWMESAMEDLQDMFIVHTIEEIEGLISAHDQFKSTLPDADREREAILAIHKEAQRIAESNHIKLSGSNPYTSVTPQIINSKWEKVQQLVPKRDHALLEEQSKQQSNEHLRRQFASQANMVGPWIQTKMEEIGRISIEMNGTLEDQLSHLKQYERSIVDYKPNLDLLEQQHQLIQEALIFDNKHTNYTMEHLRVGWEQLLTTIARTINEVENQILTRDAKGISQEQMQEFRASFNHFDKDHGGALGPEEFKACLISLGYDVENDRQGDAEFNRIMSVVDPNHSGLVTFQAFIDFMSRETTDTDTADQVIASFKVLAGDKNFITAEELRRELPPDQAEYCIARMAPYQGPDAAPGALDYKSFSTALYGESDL

Results are given in words; binding and its absence hold for the method and conditions named. Binding seen in cells or lysates may run through a third protein. Some results given as binding are weak or reduced against the parent protein; the word gives no strength.

The target of experiment [1] is GST-actinin 4 fusion protein (UniProt O43707). As to the kind of experiment: pull-down; 3 μg purified GST fusion protein on glutathione beads, incubated with 1~2 mg lysate of transfected Ros 17/2.8 cells for 2 h at 4°C; lysis buffer 1% NP40, 0.5% sodium deoxycholate, 0.1% SDS in PBS; western blot; cells untreated or treated with 20 μM forskolin for 24 h (also with 5 μM H89), or lysates treated with forskolin in vitro; only the target purified. For orientation: Immunoblotting shows a protein as a band on a membrane.

Experiment [2] concerns the target L-type calcium channel β3 subunit (UniProt P54287). As to the kind of experiment: co-IP; anti-β3 subunit antibody on Protein A beads, lysate (RIPA buffer) of β3-transfected Ros 17/2.8 cells without forskolin treatment; blot with anti-actinin 4 antibody.
Experiment [3] shares this target. Nature of the experiment: co-IP; anti-β3 subunit antibody on Protein A beads, lysate (RIPA buffer) of β3-transfected Ros 17/2.8 cells treated with 20 μM forskolin for 24 h; blot with anti-actinin 4 antibody.

As to “L-type calcium channel α1c subunit (from UniProt P22002 1-2169)”, the binding entry in experiment [1] is “no binding”. “actinin 4 (endogenous in Ros 17/2.8 cells) (from UniProt Q9QXQ0 1-911)”: the results for the binding entry in experiment [2] and in experiment [3] were “no binding (condition: cells without forskolin treatment)” and “binds”, respectively. For the substance “L-type calcium channel β3 subunit (from UniProt P54287 1-484)”, the binding result in experiment [1] is on record as “binds”.
